Test results from paper PMC4684287.
These are yes or no findings as the source states them, for the method shown. In cells and extracts the contact can be indirect. Some entries that bind do so weakly or less than the wild type. Where a sequence is shown, tags or fusion partners need not be part of it.

Amino acid sequences for entries named in this document (tags omitted). A change or cut given only in a name is not applied to a line headed by its entry.
UniProt Q9NR09: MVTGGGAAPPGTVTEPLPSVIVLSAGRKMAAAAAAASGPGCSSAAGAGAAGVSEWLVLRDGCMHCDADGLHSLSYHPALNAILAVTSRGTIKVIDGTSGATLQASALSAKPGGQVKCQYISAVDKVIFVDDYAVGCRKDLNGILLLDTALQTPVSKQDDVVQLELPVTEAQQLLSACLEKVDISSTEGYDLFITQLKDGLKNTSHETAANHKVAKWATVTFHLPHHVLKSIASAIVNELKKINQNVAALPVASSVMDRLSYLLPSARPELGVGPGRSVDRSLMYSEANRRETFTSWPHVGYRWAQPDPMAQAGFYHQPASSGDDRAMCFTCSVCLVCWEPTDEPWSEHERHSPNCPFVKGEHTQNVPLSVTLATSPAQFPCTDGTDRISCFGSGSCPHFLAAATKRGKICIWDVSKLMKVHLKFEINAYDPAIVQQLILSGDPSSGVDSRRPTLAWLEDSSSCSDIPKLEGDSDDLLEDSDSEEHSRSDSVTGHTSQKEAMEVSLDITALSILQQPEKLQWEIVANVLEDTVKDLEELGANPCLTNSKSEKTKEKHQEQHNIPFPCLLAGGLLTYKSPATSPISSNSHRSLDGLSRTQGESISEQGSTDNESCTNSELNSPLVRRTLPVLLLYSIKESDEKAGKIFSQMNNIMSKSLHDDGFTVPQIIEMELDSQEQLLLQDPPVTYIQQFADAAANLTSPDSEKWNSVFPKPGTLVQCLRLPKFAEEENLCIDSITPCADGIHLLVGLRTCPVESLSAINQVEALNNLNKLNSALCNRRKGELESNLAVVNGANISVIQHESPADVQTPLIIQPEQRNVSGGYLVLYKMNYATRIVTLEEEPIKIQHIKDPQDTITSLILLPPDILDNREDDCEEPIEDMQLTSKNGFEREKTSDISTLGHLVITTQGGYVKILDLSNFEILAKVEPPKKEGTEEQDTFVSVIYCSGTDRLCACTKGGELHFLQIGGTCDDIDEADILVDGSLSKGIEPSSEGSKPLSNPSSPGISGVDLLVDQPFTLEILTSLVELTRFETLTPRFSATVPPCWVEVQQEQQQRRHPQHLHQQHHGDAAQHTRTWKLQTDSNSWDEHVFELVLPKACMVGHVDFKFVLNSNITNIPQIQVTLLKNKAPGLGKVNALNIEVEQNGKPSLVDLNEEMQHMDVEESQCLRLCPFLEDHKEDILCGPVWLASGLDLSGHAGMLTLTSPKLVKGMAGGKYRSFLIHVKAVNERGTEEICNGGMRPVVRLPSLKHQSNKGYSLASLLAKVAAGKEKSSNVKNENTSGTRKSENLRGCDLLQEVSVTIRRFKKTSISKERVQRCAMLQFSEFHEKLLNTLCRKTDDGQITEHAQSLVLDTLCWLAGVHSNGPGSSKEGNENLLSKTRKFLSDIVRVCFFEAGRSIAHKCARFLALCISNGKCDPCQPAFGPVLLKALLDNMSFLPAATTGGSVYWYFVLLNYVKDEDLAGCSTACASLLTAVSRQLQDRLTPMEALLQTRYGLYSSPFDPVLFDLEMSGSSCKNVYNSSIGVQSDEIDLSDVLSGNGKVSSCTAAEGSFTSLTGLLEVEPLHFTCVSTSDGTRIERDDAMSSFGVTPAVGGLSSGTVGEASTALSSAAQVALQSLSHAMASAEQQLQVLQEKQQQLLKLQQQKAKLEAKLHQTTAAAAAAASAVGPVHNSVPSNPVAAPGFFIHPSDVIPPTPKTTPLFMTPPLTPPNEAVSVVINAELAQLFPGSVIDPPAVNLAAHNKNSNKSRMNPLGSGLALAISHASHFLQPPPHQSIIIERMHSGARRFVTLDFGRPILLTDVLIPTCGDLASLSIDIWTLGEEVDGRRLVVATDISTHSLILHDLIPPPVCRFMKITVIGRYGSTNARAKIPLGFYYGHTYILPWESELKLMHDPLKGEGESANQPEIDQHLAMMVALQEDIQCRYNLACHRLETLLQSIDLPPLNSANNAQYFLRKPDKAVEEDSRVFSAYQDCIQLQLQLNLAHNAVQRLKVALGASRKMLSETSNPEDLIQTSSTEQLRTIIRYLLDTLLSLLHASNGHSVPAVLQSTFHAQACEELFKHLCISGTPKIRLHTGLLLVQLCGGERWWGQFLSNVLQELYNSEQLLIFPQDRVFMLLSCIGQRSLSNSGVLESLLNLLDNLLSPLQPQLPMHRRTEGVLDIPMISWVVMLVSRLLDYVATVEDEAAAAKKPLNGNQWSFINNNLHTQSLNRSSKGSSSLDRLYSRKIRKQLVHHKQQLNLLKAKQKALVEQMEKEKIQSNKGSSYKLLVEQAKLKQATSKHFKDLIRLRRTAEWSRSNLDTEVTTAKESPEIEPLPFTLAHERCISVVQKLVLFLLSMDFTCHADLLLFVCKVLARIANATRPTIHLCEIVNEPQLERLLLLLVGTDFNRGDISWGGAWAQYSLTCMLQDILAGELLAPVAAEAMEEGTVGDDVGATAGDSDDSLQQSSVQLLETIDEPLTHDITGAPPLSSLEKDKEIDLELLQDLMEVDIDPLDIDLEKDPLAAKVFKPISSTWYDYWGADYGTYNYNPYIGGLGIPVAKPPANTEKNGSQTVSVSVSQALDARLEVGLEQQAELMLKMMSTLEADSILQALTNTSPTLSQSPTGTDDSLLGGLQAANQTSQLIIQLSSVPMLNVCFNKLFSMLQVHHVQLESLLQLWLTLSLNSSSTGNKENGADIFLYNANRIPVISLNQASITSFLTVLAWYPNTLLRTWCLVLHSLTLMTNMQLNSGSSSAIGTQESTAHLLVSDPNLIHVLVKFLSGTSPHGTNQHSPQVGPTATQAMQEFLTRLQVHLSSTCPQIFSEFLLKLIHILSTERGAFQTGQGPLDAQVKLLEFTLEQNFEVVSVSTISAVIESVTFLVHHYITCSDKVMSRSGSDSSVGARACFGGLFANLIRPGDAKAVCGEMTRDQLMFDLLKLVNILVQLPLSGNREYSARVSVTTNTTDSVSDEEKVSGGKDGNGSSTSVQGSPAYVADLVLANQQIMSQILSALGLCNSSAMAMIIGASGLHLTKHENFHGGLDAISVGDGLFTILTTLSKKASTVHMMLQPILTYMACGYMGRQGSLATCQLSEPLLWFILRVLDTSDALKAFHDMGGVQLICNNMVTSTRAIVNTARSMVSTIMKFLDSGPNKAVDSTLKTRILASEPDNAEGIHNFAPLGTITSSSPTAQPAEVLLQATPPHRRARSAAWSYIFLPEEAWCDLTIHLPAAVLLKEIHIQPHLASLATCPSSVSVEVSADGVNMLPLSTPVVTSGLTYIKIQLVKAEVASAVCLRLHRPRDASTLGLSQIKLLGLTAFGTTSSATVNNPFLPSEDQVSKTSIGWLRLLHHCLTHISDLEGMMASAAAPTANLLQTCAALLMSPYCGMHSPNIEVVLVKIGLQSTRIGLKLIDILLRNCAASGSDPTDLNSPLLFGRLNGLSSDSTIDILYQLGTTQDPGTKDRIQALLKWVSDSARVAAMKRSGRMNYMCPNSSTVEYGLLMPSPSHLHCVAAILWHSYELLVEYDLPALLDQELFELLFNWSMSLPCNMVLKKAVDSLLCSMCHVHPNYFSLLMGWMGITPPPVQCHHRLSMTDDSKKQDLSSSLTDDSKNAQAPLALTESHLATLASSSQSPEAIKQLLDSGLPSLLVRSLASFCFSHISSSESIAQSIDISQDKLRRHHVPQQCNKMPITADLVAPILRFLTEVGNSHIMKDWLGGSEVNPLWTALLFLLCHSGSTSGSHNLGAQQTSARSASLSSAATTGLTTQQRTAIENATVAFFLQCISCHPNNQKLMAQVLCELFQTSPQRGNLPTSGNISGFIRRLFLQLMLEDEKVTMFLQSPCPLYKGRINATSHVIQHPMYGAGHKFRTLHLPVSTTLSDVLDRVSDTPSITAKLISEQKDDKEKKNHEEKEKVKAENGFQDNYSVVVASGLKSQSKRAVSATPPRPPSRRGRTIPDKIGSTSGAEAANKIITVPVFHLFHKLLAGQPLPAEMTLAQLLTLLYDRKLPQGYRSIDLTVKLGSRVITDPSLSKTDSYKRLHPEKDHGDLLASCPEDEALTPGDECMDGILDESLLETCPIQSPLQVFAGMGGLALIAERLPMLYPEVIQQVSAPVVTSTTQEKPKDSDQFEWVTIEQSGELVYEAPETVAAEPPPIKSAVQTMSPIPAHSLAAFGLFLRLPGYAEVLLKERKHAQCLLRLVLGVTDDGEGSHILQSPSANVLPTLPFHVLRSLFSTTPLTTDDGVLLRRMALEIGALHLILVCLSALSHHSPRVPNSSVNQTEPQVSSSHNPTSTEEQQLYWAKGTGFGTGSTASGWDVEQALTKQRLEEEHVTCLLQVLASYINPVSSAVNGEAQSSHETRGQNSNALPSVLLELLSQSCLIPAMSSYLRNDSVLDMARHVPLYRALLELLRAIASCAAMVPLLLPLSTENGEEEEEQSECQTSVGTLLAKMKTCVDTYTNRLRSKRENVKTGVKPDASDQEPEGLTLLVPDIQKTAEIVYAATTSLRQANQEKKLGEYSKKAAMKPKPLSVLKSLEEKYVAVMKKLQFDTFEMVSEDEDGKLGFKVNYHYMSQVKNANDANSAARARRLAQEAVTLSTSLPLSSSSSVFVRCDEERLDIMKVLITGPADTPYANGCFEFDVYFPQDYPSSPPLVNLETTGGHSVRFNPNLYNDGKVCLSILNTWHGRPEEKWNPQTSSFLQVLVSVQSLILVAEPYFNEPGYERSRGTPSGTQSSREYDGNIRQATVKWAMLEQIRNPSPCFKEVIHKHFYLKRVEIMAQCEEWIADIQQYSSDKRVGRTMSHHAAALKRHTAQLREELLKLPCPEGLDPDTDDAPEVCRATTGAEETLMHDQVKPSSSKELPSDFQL

Experiments:
Assay in all cases: co-IP; FLAG-BRUCE (WT, UBC C4666A or ΔUBC) immunoprecipitated with anti-FLAG M2 antibody from lysates of U2OS-shBRUCE stable cell lines co-transfected with Myc-USP8 and GFP-BRIT1; immunoblotting of the IP complex
[1] = target: FLAG-tagged BRUCE with the UBC domain deleted (ΔUBC; aa 4605–4690) (human) (UniProt Q9NR09)
[2] = target: FLAG-tagged wild type BRUCE, full length (4857 amino acids), shBRUCE-resistant (human) (UniProt Q9NR09)
[3] = target: FLAG-tagged BRUCE UBC mutant C4666A, full length (human) (UniProt Q9NR09)

binding [1] | binding [2] | binding [3] | Binder
binds | binds | binds | Myc-USP8 (enzyme, UniProt P40818 1-1118) MPAVASVPKELYLSSSLKDLNKKTEVKPEKISTKSYVHSALKIFKTAEECRLDRDEERAYVLYMKYVTVYNLIKKRPDFKQQQDYFHSILGPGNIKKAVEEAERLSESLKLRYEEAEVRKKLEEKDRQEEAQRLQQKRQETGREDGGTLAKGSLENVLDSKDKTQKSNGEKNEKCETKEKGAITAKELYTMMTDKNISLIIMDARRMQDYQDSCILHSLSVPEEAISPGVTASWIEAHLPDDSKDTWKKRGNVEYVVLLDWFSSAKDLQIGTTLRSLKDALFKWESKTVLRNEPLVLEGGYENWLLCYPQYTTNAKVTPPPRRQNEEVSISLDFTYPSLEESIPSKPAAQTPPASIEVDENIELISGQNERMGPLNISTPVEPVAASKSDVSPIIQPVPSIKNVPQIDRTKKPAVKLPEEHRIKSESTNHEQQSPQSGKVIPDRSTKPVVFSPTLMLTDEEKARIHAETALLMEKNKQEKELRERQQEEQKEKLRKEEQEQKAKKKQEAEENEITEKQQKAKEEMEKKESEQAKKEDKETSAKRGKEITGVKRQSKSEHETSDAKKSVEDRGKRCPTPEIQKKSTGDVPHTSVTGDSGSGKPFKIKGQPESGILRTGTFREDTDDTERNKAQREPLTRARSEEMGRIVPGLPSGWAKFLDPITGTFRYYHSPTNTVHMYPPEMAPSSAPPSTPPTHKAKPQIPAERDREPSKLKRSYSSPDITQAIQEEEKRKPTVTPTVNRENKPTCYPKAEISRLSASQIRNLNPVFGGSGPALTGLRNLGNTCYMNSILQCLCNAPHLADYFNRNCYQDDINRSNLLGHKGEVAEEFGIIMKALWTGQYRYISPKDFKITIGKINDQFAGYSQQDSQELLLFLMDGLHEDLNKADNRKRYKEENNDHLDDFKAAEHAWQKHKQLNESIIVALFQGQFKSTVQCLTCHKKSRTFEAFMYLSLPLASTSKCTLQDCLRLFSKEEKLTDNNRFYCSHCRARRDSLKKIEIWKLPPVLLVHLKRFSYDGRWKQKLQTSVDFPLENLDLSQYVIGPKNNLKKYNLFSVSNHYGGLDGGHYTAYCKNAARQRWFKFDDHEVSDISVSSVKSSAAYILFYTSLGPRVTDVAT
binds | binds | binds | GFP-BRIT1 (protein, UniProt Q8NEM0 1-835) MAAPILKDVVAYVEVWSSNGTENYSKTFTTQLVDMGAKVSKTFNKQVTHVIFKDGYQSTWDKAQKRGVKLVSVLWVEKCRTAGAHIDESLFPAANMNEHLSSLIKKKRKCMQPKDFNFKTPENDKRFQKKFEKMAKELQRQKTNLDDDVPILLFESNGSLIYTPTIEINSRHHSAMEKRLQEMKEKRENLSPTSSQMIQQSHDNPSNSLCEAPLNISRDTLCSDEYFAGGLHSSFDDLCGNSGCGNQERKLEGSINDIKSDVCISSLVLKANNIHSSPSFTHLDKSSPQKFLSNLSKEEINLQRNIAGKVVTPDQKQAAGMSQETFEEKYRLSPTLSSTKGHLLIHSRPRSSSVKRKRVSHGSHSPPKEKCKRKRSTRRSIMPRLQLCRSEDRLQHVAGPALEALSCGESSYDDYFSPDNLKERYSENLPPESQLPSSPAQLSCRSLSKKERTSIFEMSDFSCVGKKTRTVDITNFTAKTISSPRKTGNGEGRATSSCVTSAPEEALRCCRQAGKEDACPEGNGFSYTIEDPALPKGHDDDLTPLEGSLEEMKEAVGLKSTQNKGTTSKISNSSEGEAQSEHEPCFIVDCNMETSTEEKENLPGGYSGSVKNRPTRHDVLDDSCDGFKDLIKPHEELKKSGRGKKPTRTLVMTSMPSEKQNVVIQVVDKLKGFSIAPDVCETTTHVLSGKPLRTLNVLLGIARGCWVLSYDWVLWSLELGHWISEEPFELSHHFPAAPLCRSECHLSAGPYRGTLFADQPAMFVSPASSPPVAKLCELVHLCGGRVSQVPRQASIVIGPYSGKKKATVKYLSEKWVLDSITQHKVCAPENYLLSQ
